Results from PMC11077971 (mBio, 2024).

Key:
Test in all cases: pull-down; GST-fused BC proteins and His-tagged CTβ-CTα, similar procedure as with GST-CTβ-CTα; SDS-PAGE; also with 2 mM NaHCO3 and Ac-CoA added (not affected); both purified
[1] = molecular target: T1, GST-tagged BC2 (Chloroflexus aurantiacus J-10-fl) (UniProt A9WKH8)
T1 sequence: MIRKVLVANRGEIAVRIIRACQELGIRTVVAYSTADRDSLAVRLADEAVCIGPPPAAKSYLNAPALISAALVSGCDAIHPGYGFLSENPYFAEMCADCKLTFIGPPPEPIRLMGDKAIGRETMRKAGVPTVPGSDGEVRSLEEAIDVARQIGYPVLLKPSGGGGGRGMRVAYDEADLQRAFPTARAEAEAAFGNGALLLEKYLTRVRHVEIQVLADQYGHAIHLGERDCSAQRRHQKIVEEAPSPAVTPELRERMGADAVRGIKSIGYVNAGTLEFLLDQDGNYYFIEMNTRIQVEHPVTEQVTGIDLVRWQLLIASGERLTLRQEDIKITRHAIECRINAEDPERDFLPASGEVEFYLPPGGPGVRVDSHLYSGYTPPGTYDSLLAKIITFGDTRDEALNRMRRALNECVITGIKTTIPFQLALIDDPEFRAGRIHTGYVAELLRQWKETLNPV

[2] = molecular target: T2, GST-tagged biotinylated BC1 (Chloroflexus aurantiacus J-10-fl) (UniProt A9W9X0)
T2 sequence (chain, biotin on Lys553): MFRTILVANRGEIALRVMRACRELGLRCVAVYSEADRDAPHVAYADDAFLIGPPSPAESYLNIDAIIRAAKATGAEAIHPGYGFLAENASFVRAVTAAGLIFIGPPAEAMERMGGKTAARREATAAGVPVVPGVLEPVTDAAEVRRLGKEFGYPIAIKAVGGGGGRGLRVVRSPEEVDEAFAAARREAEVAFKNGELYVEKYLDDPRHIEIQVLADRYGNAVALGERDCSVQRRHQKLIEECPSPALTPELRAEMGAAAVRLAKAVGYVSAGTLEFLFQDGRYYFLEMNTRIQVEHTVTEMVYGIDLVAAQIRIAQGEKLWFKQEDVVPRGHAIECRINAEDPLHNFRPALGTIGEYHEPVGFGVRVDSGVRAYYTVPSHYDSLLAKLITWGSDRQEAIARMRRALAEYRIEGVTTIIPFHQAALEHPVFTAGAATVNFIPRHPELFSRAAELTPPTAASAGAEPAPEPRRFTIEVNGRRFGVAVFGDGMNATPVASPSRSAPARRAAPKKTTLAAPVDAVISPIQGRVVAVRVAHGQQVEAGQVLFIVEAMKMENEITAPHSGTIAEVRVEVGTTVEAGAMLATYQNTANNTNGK

[3] = molecular target: T3, GST-BC1ΔBCCP^Core (Met1-Lys510) (Chloroflexus aurantiacus J-10-fl) (UniProt A9W9X0)
T3 sequence: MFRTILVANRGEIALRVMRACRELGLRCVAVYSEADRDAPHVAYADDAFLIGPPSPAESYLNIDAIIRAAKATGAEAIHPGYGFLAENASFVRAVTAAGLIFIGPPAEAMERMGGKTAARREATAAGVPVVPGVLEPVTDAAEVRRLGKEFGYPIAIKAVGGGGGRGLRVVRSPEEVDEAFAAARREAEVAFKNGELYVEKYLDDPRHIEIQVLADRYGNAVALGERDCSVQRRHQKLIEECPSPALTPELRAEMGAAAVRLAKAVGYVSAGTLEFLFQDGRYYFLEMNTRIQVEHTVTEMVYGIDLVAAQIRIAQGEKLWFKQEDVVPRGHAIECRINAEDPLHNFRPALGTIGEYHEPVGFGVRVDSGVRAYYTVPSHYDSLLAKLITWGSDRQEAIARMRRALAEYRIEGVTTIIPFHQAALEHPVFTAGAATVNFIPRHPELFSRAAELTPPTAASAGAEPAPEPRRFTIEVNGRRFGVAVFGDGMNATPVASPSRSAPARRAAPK

[4] = molecular target: T4, GST-tagged BC1K553A (Chloroflexus aurantiacus J-10-fl) (UniProt A9W9X0)
T4 sequence: T2 sequence (chain, biotin on Lys553) with K553A

[5] = molecular target: T5, GST-tagged BC1ΔBCCP (Met1-Glu452) (Chloroflexus aurantiacus J-10-fl) (UniProt A9W9X0)
T5 sequence: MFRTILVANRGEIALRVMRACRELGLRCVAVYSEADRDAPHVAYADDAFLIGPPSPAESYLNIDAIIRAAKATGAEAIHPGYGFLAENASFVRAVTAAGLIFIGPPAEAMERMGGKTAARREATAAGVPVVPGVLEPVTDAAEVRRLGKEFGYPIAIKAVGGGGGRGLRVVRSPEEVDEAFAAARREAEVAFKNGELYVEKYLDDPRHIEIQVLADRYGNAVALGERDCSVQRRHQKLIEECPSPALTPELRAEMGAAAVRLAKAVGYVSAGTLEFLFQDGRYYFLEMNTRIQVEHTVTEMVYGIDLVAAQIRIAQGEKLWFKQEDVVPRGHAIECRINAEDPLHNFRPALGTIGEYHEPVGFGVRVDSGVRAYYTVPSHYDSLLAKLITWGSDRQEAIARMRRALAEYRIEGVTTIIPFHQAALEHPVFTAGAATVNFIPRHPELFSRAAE

- binding [1]: no binding
- binding [2]: binds
- binding [3]: no binding
- binding [4]: no binding
- binding [5]: no binding
Substance: His6-CTβ-CTα subcomplex of Chloroflexus aurantiacus carboxyltransferase

Changes are numbered by the printed parent chain. These are yes or no findings as the source states them, for the method shown. For some assays here: Binding calls can cover weak binding; strength is not graded here. Tags and fused reporters may be left off the sequences shown.
